Literature values in patent publication US20160114055A1, “POLYMER DRUG CONJUGATES FOR THE TREATMENT OF AMYLOIDOSIS” (FUNDACION DE LA COMUNIDAD VALENCIANA "CENTRO DE …, priority 2013, published 2016).
Entries after “also recorded” stand apart in the source; their conditions may differ. At least one structure is not confirmed: it was looked up by name or label, or the drawing left a doubt.

Biological target: TTR mature fibrils (Homo sapiens, UniProt P02766)
Conditions: literature [2, 4]

In the case of `C[C@H]1c2cccc(O)c2C(=O)C2=C(O)[C@]3(O)C(=O)C(C(N)=O)=C(O)[C@@H](N(C)C)[C@@H]3[C@@H](O)[C@@H]21` [Doxy, doxycycline], the “TTR amyloid fibril disruption in vitro and in vivo” value is listed as “acts as a TTR fibril disrupter in vitro and in vivo; also recorded: able to disrupt amyloid fibrils in vitro, in the treated animals”.
